According to doi:10.1101/2025.03.28.646059:
Results are given in words; binding and its absence hold for the method and conditions named.

Chains of the proteins cited; added tags and fusions are not shown. Residues count along the entry.
UniProt P35637, residues 282-376: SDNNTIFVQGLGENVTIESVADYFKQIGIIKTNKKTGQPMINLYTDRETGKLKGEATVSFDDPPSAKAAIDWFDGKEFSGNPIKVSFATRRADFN

Biological target: Fused in Sarcoma (FUS) RNA-recognition motif, FUS-RRM (aa 282-376) (UniProt P35637)
Test: SEC-MALS

binding: no binding (tested: 1mg/ml)
Substance: Fused in Sarcoma (FUS) RNA-recognition motif, FUS-RRM (aa 282-376) (from UniProt P35637 282-376) (domain or fragment)
